Reference: PubChem BioAssay AID652054 (National Center for Advancing Translational Sciences (NCATS), 2013)
Values joined by “and” are separate entries in the source; they are usually repeats but may differ in a detail not shown here. Equal entries are not always repeated. The whole screen tested about 360,000 compounds, of which about 9,100 (2.5%) were called active. Inconclusive means that the source gave no clear call. Such entries were picked first, then a sample of the others. Rule as the data show it: active = max response below about -50%; inconclusive = no clear call, values can overlap the other calls; inactive = above that.

Amino acid sequences for entries named in this document (tags omitted).
UniProt P35462, whole entry, looked up: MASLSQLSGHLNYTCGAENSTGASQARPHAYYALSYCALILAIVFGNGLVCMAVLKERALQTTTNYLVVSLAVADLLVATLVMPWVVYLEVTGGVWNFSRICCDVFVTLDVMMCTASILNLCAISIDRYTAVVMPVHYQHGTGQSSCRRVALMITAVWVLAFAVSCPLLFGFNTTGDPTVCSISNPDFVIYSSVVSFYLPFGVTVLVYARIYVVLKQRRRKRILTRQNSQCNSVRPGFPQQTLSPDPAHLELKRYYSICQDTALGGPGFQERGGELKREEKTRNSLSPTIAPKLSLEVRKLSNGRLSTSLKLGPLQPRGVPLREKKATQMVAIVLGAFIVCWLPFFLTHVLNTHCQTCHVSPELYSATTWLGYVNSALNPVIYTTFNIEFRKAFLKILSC

These molecules were tested against D(3) dopamine receptor (Homo sapiens) (UniProt P35462) (assay: qHTS of D3 Dopamine Receptor Antagonist: qHTS). Conditions: D3R cells, DiscoveRx beta-arrestin luminescence, antagonist mode; stronger effect = lower value.
Procedure, shortened: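 Cells expressing the human receptor were seeded at 1500 cells/well, incubated overnight at 37 degrees C in 5% CO2, then exposed to library compounds with dopamine controls for 90 minutes at 37 degrees C before luminescent detection.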
% is scaled to controls: 0 for no effect and ±100 for the full control effect.

| SMILES | max response, negative = inhibition |
| --- | --- |
| O=[N+]([O-])c1cc2c(cc1/C=N/n1c(-c3ccccn3)n[nH]c1=S)OCO2 | active: -50.1% |
| CCC(CO)Oc1cc(NCc2cccc(F)c2)c2ncn(C(C)C)c2c1 (centres undefined) | inconclusive: -34.3% |
| COc1ccc(C(CNc2ccc(S(C)(=O)=O)cc2[N+](=O)[O-])N(C)C)cc1OC (centres undefined) | inconclusive: -49.5% |
| Cc1cc(C)cc(NC(=O)c2ccc(CSc3nnnn3C)cc2)c1 | inactive: -2.71% |
| COc1ccc(-c2nc3ccc(C)cn3c2Cc2cccc(F)c2)cc1OC | inactive: 11.2% |
| COc1cccc(Nc2nc(C(N)Cc3ccc(C(F)(F)F)cc3)cs2)n1 (centres undefined) | inactive: 18.7% |
| COc1ccc(C(=O)Nc2ccccc2C(=O)Nc2cc(C)ccn2)cc1 | active: -63.5% |
| CCOC(=O)C(CC)/C(C)=N/NC(=O)c1ccc([N+](=O)[O-])cc1 (centres undefined) | active: -64.5% |
| Cc1[nH]cnc1CSCCN | inconclusive: -32.3% |
| CCc1nc2c(OCc3ccc(C(F)(F)F)cc3)cccn2c1N(C)C(=O)c1ccc(OC)cc1 | inconclusive: -44.7% |
| CC1(C)NC(=O)N(CCCOc2ccc(Br)cc2Cl)C1=O | inconclusive: -40.9% |
| COc1ccc(CN2CCCCC2C)c(C)c1C (centres undefined) | inconclusive: -41.1% |
| C/C(Cc1ccccc1)=N\NC(=O)CNC(=O)c1ccc(Br)cc1 | inactive: -9.89% |
| O=C(NCCc1c[nH]c2ccccc12)c1ccccc1 | inactive: 1.4% |
| COC(=O)c1sccc1NC(=O)CSc1cc(Cl)ccc1Cl | inconclusive: -40.1% |
| CNC(=S)Nc1ccc(N2CCN(c3ccc(C(F)(F)F)cn3)CC2)nc1 | active: -51.9% |
| Cc1ccc(S(=O)(=O)N(C)c2ccc(C(=O)NCC(c3ccccc3)N3CCCC3)cc2)cc1 (centres undefined) | active: -64.3% |
| CSc1ncccc1C(=O)NC1CCN(Cc2ccccc2)CC1 | active: -60% |
| CCCCN(C)C(=O)C1CCN(Cc2ccc(OCc3ccccc3)cc2)CC1 | active: -67.9% |
| CCCc1[nH]nc2c1C(c1ccc(OC(=O)c3ccco3)cc1)C(C#N)=C(N)O2 (centres undefined) | inconclusive: -33.3% |
| COc1cc(C)c(C)cc1S(=O)(=O)N1CCN(Cc2ccc3c(c2)OCO3)CC1 | active: -54.5% |

Structures above that have fluorine:

| SMILES | max response, negative = inhibition |
| --- | --- |
| CCC(CO)Oc1cc(NCc2cccc(F)c2)c2ncn(C(C)C)c2c1 (centres undefined) | inconclusive: -34.3% |
| COc1ccc(-c2nc3ccc(C)cn3c2Cc2cccc(F)c2)cc1OC | inactive: 11.2% |
| COc1cccc(Nc2nc(C(N)Cc3ccc(C(F)(F)F)cc3)cs2)n1 (centres undefined) | inactive: 18.7% |
| CCc1nc2c(OCc3ccc(C(F)(F)F)cc3)cccn2c1N(C)C(=O)c1ccc(OC)cc1 | inconclusive: -44.7% |
| CNC(=S)Nc1ccc(N2CCN(c3ccc(C(F)(F)F)cn3)CC2)nc1 | active: -51.9% |

Later entries

| SMILES | max response, negative = inhibition |
| --- | --- |
| Cc1ccc(C(=O)C2=C(O)C(=O)N(c3ncccn3)C2c2ccc(Br)cc2)o1 (centres undefined) | inconclusive: -45.6% |
| CCN1CCSc2ccc(C(=O)NCc3cccc(F)c3)cc21 | inactive: 9.22% |
| Cc1ccc(/C(O)=C/C(=O)C(=O)NNC(=O)C(O)(c2ccccc2)c2ccccc2)cc1 | active: -87.6% |
| O=C(NCc1ccc(F)cc1)Nc1nnc([C@@H]2C[C@H](O)[C@@H](CO)O2)s1 | inactive: 0% |
| CCOC(=O)C1(CCOc2ccccc2)CCN(Cc2ccc(O)c(OCC)c2)CC1 | inconclusive: -45.7% |
| CCOC(=O)C1(CCCc2ccccc2)CCN(C2CCSCC2)CC1 | inconclusive: -39% |
| O=C(c1cc([N+](=O)[O-])ccc1N1CCCCC1)N1CCCCC1 | inconclusive: -39.4% |
| COc1cccc(-c2ccc(NC(=O)C3CCCN(Cc4cc(C)[nH]n4)C3)cc2)c1 (centres undefined) | inactive: -7.76% |
| O=C(COC(=O)c1cc(Br)ccc1O)NNC(=O)c1ccc(Cl)cc1 | inconclusive: -38.8% |
| Cc1ccc(/C=[N+](\[O-])c2ccc(N(C)C)cc2)c2nsnc12 | inconclusive: -43.6% |
| CC1=NC(=O)C(N=Nc2ccccc2)N1c1ccccc1 (centres undefined) | active: -58.4% |
| CC(=O)c1c(C)[nH]c(C(=O)OCC(=O)N(Cc2ccccc2)C(C)(C)C)c1C | inactive: 4.19% |
| O=C(C[C@H]1C/C=C\CC[C@H](Cc2ccc(F)cc2)C(=O)O[C@@H](c2ccccc2)CNC1=O)N[C@H](CO)Cc1ccccc1 | inactive: 61.7% |
| CCN1CCCC1CNC(=O)CSCc1nc(-c2ccccc2C)oc1C (centres undefined) | inconclusive: -49.4% |
| C(=C\c1ccccc1)/CN1CCN(C(c2cccs2)c2nnnn2C2CCCC2)CC1 (centres undefined) | active: -86.5% |
| CN(C)CC1CC/C(=C\c2ccc(O)cc2)C1=O (centres undefined) | active: -61.4% |
| O=C(OCc1cccc(C(F)(F)F)c1)c1cc([N+](=O)[O-])ccc1N1CCOCC1 | inconclusive: -32.9% |
| Cc1noc(C)c1S(=O)(=O)Nc1ccc2c(c1)C(=O)N([C@H](C)CO)C[C@H](C)[C@@H](CN(C)C(=O)NC1CCCCC1)O2 | inactive: 0.433% |
| O=C1c2cccc3cc([N+](=O)[O-])cc(c23)C(=O)N1CCN1CCCC1 | inconclusive: -30.4% |
| COc1cccc(CNC(=O)CNC(=O)c2cccs2)c1 | inactive: 12.2% |
| Cc1cccc(NC(=S)Nc2ccc(Br)cc2)c1 | inconclusive: -31% |

| SMILES | max response, negative = inhibition |
| --- | --- |
| CCc1ccc(OCC(O)CN2CCN(c3ccccc3)CC2)cc1 (centres undefined) | inconclusive: -34.8% and active: -56.8% |
| COc1ccc(C(CNC(=O)CN2C(=O)NC(C)(c3ccc4ccccc4c3)C2=O)N2CCCC2)cc1 (centres undefined) | inconclusive: -30.5% |
| O=C(CCc1nc2ccccc2[nH]1)N1CCc2ccccc2C1 | inconclusive: -34.3% |
| COc1ccc(NC(=O)c2ccccc2NC(=O)COc2ccccc2)cc1 | inconclusive: -39.9% |
| Fc1ccccc1C(c1nnnn1Cc1ccc2c(c1)OCO2)N1CCN(Cc2ccccc2)CC1 (centres undefined) | inconclusive: -34.1% |
| COC(=O)Nc1nc(-c2ccccc2)c(C(=O)c2ccc(Cl)cc2)s1 | inconclusive: -39.5% |
| O=c1c2c3c(sc2n2cnnc2n1Cc1ccccc1)CN(Cc1ccccc1)CC3 | inconclusive: -44.7% |
| Cc1ccc(S(=O)(=O)Nc2nc3ccccc3s2)cc1 | inconclusive: -45.2% |
| Cc1ccc(-n2cc(CN3CCCN(C=O)CC3)c(-c3ccc(F)cc3)n2)cc1 | inconclusive: -42.1% |
| CCc1nc2ccc(C(=O)N(C)CC(=O)Nc3ccccc3C(F)(F)F)cc2nc1CC | inconclusive: -31.3% |
| O=C(c1cc([N+](=O)[O-])ccc1N1CCOCC1)N1CCOCC1 | inactive: 3.5% |
| O=C(c1ccc2c(c1)OCCO2)N1CCN(Cc2ccccc2)CC1 | inconclusive: -42.6% |
| CC1CCN(Cc2cc(=O)oc3cc4c(cc23)CCCC4)CC1 | active: -98.4% |
| O=[N+]([O-])c1ccc(NCc2ccccc2)nc1 | inconclusive: -32% |
| COc1cccc(-n2c(SCC(=O)N3CCOCC3)nc3c([nH]c4ccccc43)c2=O)c1 | inactive: 11.1% |
| Oc1ccc(N2CCN(Cc3ccc(OCCCN4CCCCC4)cc3)CC2)cc1 | inconclusive: -37.4% |
| COc1ccc(F)c(CN2CCCC(CO)(Cc3cccc(Cl)c3)C2)c1 (centres undefined) | inconclusive: -31.6% |
| CCCCn1c(Cc2ccccc2)n[nH]c1=S | inconclusive: -30.9% |
| Cc1cc(=O)[nH]c(SCc2nc3ccc([N+](=O)[O-])cc3[nH]2)n1 | inconclusive: -32.6% |
| CCOC(=O)c1c(NC(=O)CN2CCN(S(=O)(=O)c3cc(Cl)ccc3Cl)CC2)sc(C(=O)N(C)C)c1C | inactive: -8.5% |
| Cc1cccc(C(C)(C)C)c1OCCOCCN1CCCC1 | inconclusive: -40.8% |

3 structures already listed, ordered by length of the SMILES, ascending:

| SMILES | max response, negative = inhibition |
| --- | --- |
| O=C(CCc1nc2ccccc2[nH]1)N1CCc2ccccc2C1 | inconclusive: -34.3% |
| CC1CCN(Cc2cc(=O)oc3cc4c(cc23)CCCC4)CC1 | active: -98.4% |
| CC(=O)c1c(C)[nH]c(C(=O)OCC(=O)N(Cc2ccccc2)C(C)(C)C)c1C | inactive: 4.19% |

Next part.

| SMILES | max response, negative = inhibition |
| --- | --- |
| COc1cc(/C=C2\COC/C(=C\c3ccc(O)c(OC)c3)C2=O)ccc1O | active: -90.2% |
| Cc1cccc(OCc2nnc(NC(=O)c3cccs3)s2)c1 | inconclusive: -33.3% |
| CC(C)(C)c1ccc(/C=N/Nc2nncn2N)cc1 | inconclusive: -48.4% |
| CCCCn1c(SCC(=O)c2ccccc2)nc2ccsc2c1=O | inactive: 27.1% |
| O=C1CC(c2cccc(Cl)c2)CC(O)=C1C=Nc1ccccc1 (centres undefined) | inconclusive: -41.6% |
| CCOCCCN(Cc1ccco1)S(=O)(=O)c1csc(C(N)=O)c1 | inactive: 2.23% |
| CNCc1ccccc1Sc1ccc(O)c(O)c1 | inconclusive: -31.3% |
| C[C@@H]1CN([C@H](C)CO)S(=O)(=O)c2ccc(C#Cc3ccccc3)cc2O[C@@H]1CN(C)C(=O)CN(C)C | inactive: 14.9% |
| c1ccc(CCn2nnnc2C(c2cccs2)N2CCN(Cc3ccc4c(c3)OCO4)CC2)cc1 (centres undefined) | active: -67.2% |
| CC1(C(=O)Nc2ccccc2)CCN1C(=O)CCc1ccc(Cl)cc1Cl (centres undefined) | inactive: 0% |
| COc1ccc(Cn2c(C)nc3oc4cc(OC)ccc4c(=O)c3c2=O)cc1 | inconclusive: -41.1% |
| CC(C)C[C@@H](CN)NC(=O)c1nc[nH]c1C(=O)N[C@@H](Cc1ccccc1)C(=O)CNC[C@H](C)NC(=O)c1nc[nH]c1C(=O)N[C@@H](CC(=O)O)C(=O)O | inconclusive: -33.7% |
| O=S(OCCN1CCCC1)C(c1ccccc1)c1ccccc1 (centres undefined) | inconclusive: -49.9% |
| O=C(CCCN1C(=O)c2ccccc2C1=O)N1CCN(c2ccccn2)CC1 | inactive: -22.8% |
| COc1ccc2[nH]c(=O)c(CN(C(=O)c3ccco3)C(C)C)cc2c1 | inactive: -7.25% |
| CC1(C)CC(=O)c2c(O)cc(OCC(=O)Nc3ccc(CCO)cc3)cc2O1 | inactive: 17.2% |
| N#Cc1cccc(NC(=O)Cn2c3[n+](c4ccc(C(F)(F)F)cc42)CCCCC3)c1 | active: -73.8% |
| [O-][N+]1=c2ccc(Nc3ccccc3)cc2=NC12CCCCC2 | inconclusive: -31.6% |
| CO[C@H]1/C=C/O[C@@]2(C)Oc3c(C)c(O)c4c(O)c(c(C=NN5CCN(C)CC5)c(O)c4c3C2=O)NC(=O)/C(C)=C\C=C\[C@H](C)[C@H](O)[C@@H](C)[C@@H](O)[C@@H](C)[C@H](OC(C)=O)[C@@H]1C | inconclusive: -48.1% |
| CC1(C(=O)Nc2ccc(Cl)cc2)Cc2c(-c3cccc(C(N)=O)c3)ccnc2O1 (centres undefined) | inconclusive: -36.6% |
| C/C(CC1CC2=C(CC1(C)C)C(C)(C)CCC2)=N\NC(N)=S (centres undefined) | inconclusive: -42% |
